PubChem BioAssay AID1259254 – NCATS | 2017
Screen: 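Genome-wide screen for genes that prevent DNA re-replication in cancer cells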 (primary screen). Cells: human HCT116 colorectal cancer cells. Reagent: single siRNA against human genes. Time to read-out: 3 days. Read-out: 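Imaged Hoechst DNA stain sorts each cell into a cycle phase by DNA amount; per plate, G2 fraction set to 0% for non-targeting and 100% for GMNN siRNA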. Scale: G2 robust z-score and G2 cells, % of GMNN control: higher = more G2 cells, more excess DNA replication; raw share of cells in G2: higher = larger share of cells with G2 DNA content. Rule for the call: 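Active siRNAs have a G2 robust z of 5 or more median absolute deviations over the median, which in these data means about 38% or higher of GMNN control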.
Shown is an unselected part of about 59,000 reagents tested. About 1,550 of them (2.6%) count as active. 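G2 share is only a proxy for re-replication; each gene was hit by three separate siRNAs, and active genes were retested.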 Raw values are not corrected between plates. Reagents against one gene are numbered here. The record does not give: the amount of reagent.

| target gene | reagent no. | G2 robust z-score | G2 cells, % of GMNN control | raw share of cells in G2 (%) | call |
| --- | --- | --- | --- | --- | --- |
| CCDC125 (coiled-coil domain containing 125) | 1 | -0.299 | 0.862 | 3.63 | inactive |
| CCDC125 (coiled-coil domain containing 125) | 2 | 3 | 24.1 | 12.8 | inactive |
| CCDC125 (coiled-coil domain containing 125) | 3 | -0.8 | -2.66 | 3.26 | inactive |
| RXFP1 (relaxin family peptide receptor 1) | 1 | -0.642 | -1.55 | 5.29 | inactive |
| RXFP1 (relaxin family peptide receptor 1) | 2 | -0.85 | -3.01 | 3.46 | inactive |
| RXFP1 (relaxin family peptide receptor 1) | 3 | -0.078 | 2.42 | 4.01 | inactive |
| ZNF623 (zinc finger protein 623) | 1 | -0.404 | 0.128 | 3.57 | inactive |
| ZNF623 (zinc finger protein 623) | 2 | -0.761 | -2.39 | 4.92 | inactive |
| ZNF623 (zinc finger protein 623) | 3 | -0.493 | -0.502 | 3.13 | inactive |
| KMT2B (lysine methyltransferase 2B) | 1 | 0.277 | 4.91 | 6.75 | inactive |
| KMT2B (lysine methyltransferase 2B) | 2 | -0.443 | -0.15 | 3.15 | inactive |
| KMT2B (lysine methyltransferase 2B) | 3 | 1.46 | 13.2 | 10.2 | inactive |
| DHRS9 (dehydrogenase/reductase 9) | 1 | 0.426 | 5.96 | 8.83 | inactive |
| DHRS9 (dehydrogenase/reductase 9) | 2 | -0.826 | -2.84 | 4.46 | inactive |
| DHRS9 (dehydrogenase/reductase 9) | 3 | -0.238 | 1.29 | 4.26 | inactive |
| CEP162 (centrosomal protein 162) | 1 | 1.56 | 14 | 10.5 | inactive |
| CEP162 (centrosomal protein 162) | 2 | -0.688 | -1.87 | 3.36 | inactive |
| CEP162 (centrosomal protein 162) | 3 | -0.77 | -2.45 | 2.26 | inactive |
| CCDC140 (CCDC140 long non-coding RNA) | 1 | -0.31 | 0.783 | 4.09 | inactive |
| CCDC140 (CCDC140 long non-coding RNA) | 2 | -0.173 | 1.75 | 3.45 | inactive |
| CCDC140 (CCDC140 long non-coding RNA) | 3 | -0.659 | -1.67 | 2.49 | inactive |
| GSG1L (GSG1 like) | 1 | 0 | 2.97 | 4.1 | inactive |
| GSG1L (GSG1 like) | 2 | 0.379 | 5.63 | 5.72 | inactive |
| GSG1L (GSG1 like) | 3 | 7.63 | 56.6 | 20.4 | active |
| FADS6 (fatty acid desaturase 6) | 1 | 6.92 | 51.7 | 25.1 | active |
| FADS6 (fatty acid desaturase 6) | 2 | 0.395 | 5.75 | 6.38 | inactive |
| FADS6 (fatty acid desaturase 6) | 3 | 1.48 | 13.4 | 11.7 | inactive |
| MRPS17 (mitochondrial ribosomal protein S17) | 1 | 0.433 | 6.02 | 8.68 | inactive |
| MRPS17 (mitochondrial ribosomal protein S17) | 2 | 0.505 | 6.52 | 6.65 | inactive |
| MRPS17 (mitochondrial ribosomal protein S17) | 3 | -0.77 | -2.45 | 2.86 | inactive |
| ZNF551 (zinc finger protein 551) | 1 | 0.434 | 6.02 | 5.16 | inactive |
| ZNF551 (zinc finger protein 551) | 2 | -0.0453 | 2.65 | 4.09 | inactive |
| ZNF551 (zinc finger protein 551) | 3 | 3.63 | 28.5 | 13.5 | inactive |
| DAW1 (dynein assembly factor with WD repeats 1) | 1 | -0.28 | 0.994 | 3.96 | inactive |
| DAW1 (dynein assembly factor with WD repeats 1) | 2 | 0.884 | 9.19 | 6.04 | inactive |
| DAW1 (dynein assembly factor with WD repeats 1) | 3 | -0.144 | 1.96 | 3.38 | inactive |
| GFY (golgi associated olfactory signaling regulator) | 1 | -0.324 | 0.686 | 4.04 | inactive |
| GFY (golgi associated olfactory signaling regulator) | 2 | 0.322 | 5.23 | 5.17 | inactive |
| GFY (golgi associated olfactory signaling regulator) | 3 | 1.72 | 15.1 | 7.83 | inactive |
| CMTR2 (cap methyltransferase 2) | 1 | -0.254 | 1.18 | 4.98 | inactive |
| CMTR2 (cap methyltransferase 2) | 2 | 7.83 | 58 | 28.2 | active |
| CMTR2 (cap methyltransferase 2) | 3 | -0.264 | 1.11 | 3.49 | inactive |
| ABHD18 (abhydrolase domain containing 18) | 1 | -0.568 | -1.03 | 4.02 | inactive |
| ABHD18 (abhydrolase domain containing 18) | 2 | -0.16 | 1.84 | 5.11 | inactive |
| ABHD18 (abhydrolase domain containing 18) | 3 | 0.837 | 8.85 | 4.8 | inactive |
| TJP1 (tight junction protein 1) | 1 | -0.117 | 2.14 | 4.31 | inactive |
| TJP1 (tight junction protein 1) | 2 | 0.111 | 3.75 | 6.6 | inactive |
| TJP1 (tight junction protein 1) | 3 | 0.852 | 8.96 | 6.36 | inactive |
